Taken from: PubChem BioAssay AID686937 (Drosophila RNAi Screening Center, 2013)
Assay: 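Knock-downs that reduce output of a secreted reporter enzyme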 (primary screen). Cell system: Drosophila S2 cells expressing secreted horseradish peroxidase. Knock-down reagent: long dsRNA against Drosophila genes. Time to read-out: about 5.5 days (5 days dsRNA, then 12 h reporter induction). Treatment: reporter expression induced after 5 days of dsRNA, read 12 h later; inducer not stated. Measured: 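Chemiluminescent measurement of peroxidase in the medium 12 h after reporter induction, following 5 days of dsRNA, given as a z-score per plate; higher means more secretion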. Scale: z-score: higher = more reporter secreted into medium.
The screen tested about 23,000 reagents; this is an unselected part of those with a known target gene and a result. 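Reduced-secretion tags in replicate 1 do not always agree with the z-scores; no criterion for assigning the tags was given.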 The numbers tell different reagents against one gene apart. A plus sign joins genes that one reagent is predicted to hit. Not stated in the record: the amount of reagent.

The opening 6 entries, to show the layout:
predicted target	dsRNA no.	z-score, replicate 1	z-score, replicate 2	z-score, replicate 3	z-score, replicate 4	phenotype, replicate 1
CG42502 + CG10570	1	0.65	0.32			
Mlh1 (GeneID 35796)	1	0.53	0.34			
AP-2alpha (GeneID 33211)	1	0.39	0.41			
CG12811 (GeneID 41229)	1	0.51	0.53			
CG13933 (GeneID 38227)	1	0.12	0.34			
Syn1 + CG7370	1	-1.21	-0.51			

Results, from the start:
predicted target	dsRNA no.	z-score, replicate 1	z-score, replicate 2	z-score, replicate 3	z-score, replicate 4	phenotype, replicate 1
CG42502 + CG10570	1	0.65	0.32			
Mlh1 (GeneID 35796)	1	0.53	0.34			
AP-2alpha (GeneID 33211)	1	0.39	0.41			
CG12811 (GeneID 41229)	1	0.51	0.53			
CG13933 (GeneID 38227)	1	0.12	0.34			
Syn1 + CG7370	1	-1.21	-0.51			
CG13606 (GeneID 42873)	1	0.38	0.31			
CG14115 (GeneID 39487)	1	-0.15	0.07			
CG5388 (GeneID 42612)	1	0.34	0.31			
Acat1 (GeneID 31695)	1	0.27	0.45			
timeout (GeneID 41615)	1	0.19	0.49			
timeout (GeneID 41615)	2	0.43	0.39			
timeout (GeneID 41615)	3	0.31	-0.03			
timeout (GeneID 41615)	4	0.45	0.73			
timeout (GeneID 41615)	5	0.34	0.57			
timeout (GeneID 41615)	6	0.15	-0.39			
CG13870 (GeneID 37308)	1	-0.73	0.16			
CG14275 (GeneID 34144)	1	0.32	0.43			
Dna2 (GeneID 31934)	1	0.36	0.5			
CG31464 (GeneID 318749)	1	-0.3	0.11			
park + Targ3	1	0.22	0.28			
Oseg5 (GeneID 35349)	1	0.45	0.55			
Cyp6d4 (GeneID 42682)	1	0.23	0.31			
CG6870 (GeneID 35067)	1	0.39	0.32			
L (retired record) (GeneID 44831)	1	-0.01	-0.31			
L (retired record) (GeneID 44831)	2	-0.9	-1			
CG7987 (GeneID 41768)	1	-0.12	-0.13			
CG6443 (GeneID 34477)	1	-0.04	0.15			
CG17782 (GeneID 42912)	1	0.1	0.28			
CG14401 (GeneID 35358)	1	0.31	0.25			
CG14401 (GeneID 35358)	2	1.07	2.52			
CG9411 (GeneID 32392)	1	0.39	0.47			
Best4 (GeneID 39660)	1	0.11	0.15			
Rpn12 (GeneID 39845)	1	-6.39	-6.14			reduced secretion
ana1 (GeneID 42927)	1	0.34	0.51			
ana1 (GeneID 42927)	2	-0.03	1.21			
CG31010 (GeneID 318555)	1	0.59	0.32			
Crk (GeneID 43775)	1	0.22	0.18			
Ctr1C (GeneID 43668)	1	0.11	0.24			
spaw (GeneID 246568)	1	0.14	0.02			
tobi (GeneID 43072)	1	-0.9	-0.14			
Dlic (GeneID 32057)	1	-0.2	0.34			
Rsph1 (GeneID 34712)	1	0.33	0.29			
CG10700 (GeneID 35183)	1	0.17	0.19			
cnc (GeneID 42743)	1	0.47	0.22			
cnc (GeneID 42743)	2	0.18	0.27			
cnc (GeneID 42743)	3	-0.09	-0.3			
cnc (GeneID 42743)	4	0.22	-0.02			
CG18609 (GeneID 37158)	1	0.2	0.23			
CG8360 (GeneID 34122)	1	0.5	0.54	0.45	0.47	
Vps4 (GeneID 32777)	1	-3.03	-4.57			reduced secretion
Ser7 (GeneID 31917)	1	0.43	0.52			
CG10918 (GeneID 33123)	1	0.35	0.36			
CG14535 (GeneID 34073)	1	0.18	0.35			
stwl (GeneID 39581)	1	0.39	-0.16			
CG34195 (GeneID 37018)	1	0.16	0.41			
CG15373 (GeneID 32784)	1	0.3	0.31			
Eph (GeneID 43803)	1	0.58	0.55			
CG18530 (GeneID 59241)	1	0.18	0.35			
Cpr62Bb (GeneID 38240)	1	0.23	0.13			
CG10734 (GeneID 36787)	1	0.1	0.27			
Lkb1 (GeneID 41673)	1	0.65	0.62			
Cht9 (GeneID 37392)	1	0.23	0.15			
CG6325 (GeneID 41268)	1	0.31	0.26			
osa (GeneID 42130)	1	0.13	0.04			
tst + CG10375	1	0.18	0.19			
tnc (GeneID 42990)	1	0.29	0.26			
ATPsynD (GeneID 42291)	1	-0.19	-1.1			
CG32219 (GeneID 317922)	1	0.83	0.39			
l(1)G0020 (GeneID 31811)	1	0.17	-0.93			
CG44774 (GeneID 31424)	1	0.3	0.3			
scaf6 (GeneID 3346235)	1	0.35	0.18			
scaf6 (GeneID 3346235)	2	0.12	-0.19			
scaf6 (GeneID 3346235)	3	-1.19	-1.42			
CG14207 (GeneID 32955)	1	0.47	0.34			
CG14207 (GeneID 32955)	2	0.07	0.1			
DNAlig4 (GeneID 32322)	1	0.19	0.46			
Rh2 (GeneID 42261)	1	0.47	0.4			
foxo (GeneID 41709)	1	-3.87	-2.5			reduced secretion
foxo (GeneID 41709)	2	0.41	0.26			
Pex10 (GeneID 38182)	1	0.33	0	0.13	0	
Pex10 (GeneID 38182)	2	-0.28	0.25			
